Patent US20250034113A1, “SOLID STATE FORMS OF TAVAPADON AND PROCESSES FOR PREPARATION THEREOF” (TEVA CZECH INDUSTRIES S.R.O, priority 2021, published 2025)
Some of these results come from one statement about several compounds together.

Assay: Stability test of crystalline forms at different relative humidities and temperatures, XRPD analysis
Type: physicochemical
Details: 25° C./60% RH and 40° C./75% RH, by XRPD
Experimental: Powder X-ray Diffraction was performed on an X-Ray powder diffractometer PanAlytical X'pert Pro; CuKα radiation (λ=1.54187 Å); X'Celerator detector with active length 2.122 degrees 2-theta; laboratory temperature 25±3° C.; zero background sample holders. Prior to analysis, the samples were gently ground using a mortar and pestle to obtain a fine powder. The ground sample was adjusted into a cavity of the sample holder and the surface of the sample was smoothed using a cover glass.
• Scan range: 3-40 degrees 2-theta • Scan mode: continuous • Step size: 0.0167 degrees • […] s • Sample spin: 60 rpm • Sample holder: zero background silicon plate
Samples of Tavapadon form 1 and Form H1 were subjected to conditions of different relative humidities at different temperatures. XRPD analysis was performed on the samples after 2 month.
Samples of Tavapadon Form H1 were subjected to conditions of different relative humidities at different temperatures, over a time period of 6 months. XRPD analysis was performed on the samples after 2, 4 and 6 months.
Samples of Tavapadon Form R1 were subjected to conditions of different relative humidities at different temperatures, over a time period of 6 months. XRPD analysis was performed on the samples after 2, 4 and 6 months.

Cc1cc(Oc2ncccc2C(F)(F)F)ccc1-c1c(C)c(=O)[nH]c(=O)n1C (single isomer, unassigned) [Tavapadon Form 1, 1,5-dimethyl-6-(2-methyl-4-{[3-(trifluoromethyl)pyridin-2-yl]oxy}phenyl)pyrimidine-2,4(1H,3H)-dione]
time stable after exposure to different relative humidity conditions at different temperatures (listed as Tavapadon form 1): at least 2 months

Cc1cc(Oc2ncccc2C(F)(F)F)ccc1-c1c(C)c(=O)[nH]c(=O)n1C (single isomer, unassigned) [Tavapadon Form H1, 1,5-dimethyl-6-(2-methyl-4-{[3-(trifluoromethyl)pyridin-2-yl]oxy}phenyl)pyrimidine-2,4(1H,3H)-dione]
time stable after exposure to different relative humidity conditions at different temperatures (listed as Form H1): at least 2 months
